SMILES strings stand for the structures.

Experiment [1] deals with iPSC-derived human spinal motor neurons. As to the kind of experiment: cells. The format is cell-based. The following applies: Neuron, 48 h, read-out: IC50, neurite outgrowth inhibition.
For experiment [2], the system named is iPSC-derived human cortical glutamatergic neurons. As to the kind of experiment: cells. The following applies: Neuron, 48 h, read-out: IC50, neurite outgrowth inhibition. The format is cell-based.

Take `COc1cc2c(c(OC)c1OC)-c1ccc(OC)c(=O)cc1[C@@H](NC(C)=O)CC2` [Colchicine]: the IC50 in experiment [1] was determined as 55.8 nM; in experiment [2], 21.8 nM.

These data come from article PMC9444042 (Neurotoxicology, 2021).
